Reference: paper PMC10468069
These are yes or no findings as the source states them, for the method shown. In cells and extracts the contact can be indirect. These calls come from enrichment with a bait or labelling near it, and not all partners need be listed.

Protein sequences, listed by entry. Tags and fused reporters are not part of them.
UniProt P53894: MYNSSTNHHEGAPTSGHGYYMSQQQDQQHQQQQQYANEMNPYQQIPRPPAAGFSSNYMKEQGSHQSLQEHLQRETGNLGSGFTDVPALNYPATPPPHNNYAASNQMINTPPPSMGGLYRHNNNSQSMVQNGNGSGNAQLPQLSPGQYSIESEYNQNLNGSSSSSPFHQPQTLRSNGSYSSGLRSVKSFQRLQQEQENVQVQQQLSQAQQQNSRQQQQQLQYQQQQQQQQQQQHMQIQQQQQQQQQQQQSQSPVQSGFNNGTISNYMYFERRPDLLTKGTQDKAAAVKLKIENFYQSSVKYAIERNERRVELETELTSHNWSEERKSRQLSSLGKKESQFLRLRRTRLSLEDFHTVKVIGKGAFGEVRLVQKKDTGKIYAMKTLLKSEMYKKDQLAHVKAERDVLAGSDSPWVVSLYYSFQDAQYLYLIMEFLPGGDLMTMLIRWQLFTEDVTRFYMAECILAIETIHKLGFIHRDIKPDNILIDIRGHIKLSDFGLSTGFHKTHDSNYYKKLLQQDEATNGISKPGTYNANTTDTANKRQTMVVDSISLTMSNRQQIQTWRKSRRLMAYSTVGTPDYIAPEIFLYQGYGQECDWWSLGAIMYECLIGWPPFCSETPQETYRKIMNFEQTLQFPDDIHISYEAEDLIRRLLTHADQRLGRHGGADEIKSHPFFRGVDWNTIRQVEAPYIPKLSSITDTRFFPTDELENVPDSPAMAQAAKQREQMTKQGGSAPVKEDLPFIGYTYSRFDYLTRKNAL
UniProt P08964: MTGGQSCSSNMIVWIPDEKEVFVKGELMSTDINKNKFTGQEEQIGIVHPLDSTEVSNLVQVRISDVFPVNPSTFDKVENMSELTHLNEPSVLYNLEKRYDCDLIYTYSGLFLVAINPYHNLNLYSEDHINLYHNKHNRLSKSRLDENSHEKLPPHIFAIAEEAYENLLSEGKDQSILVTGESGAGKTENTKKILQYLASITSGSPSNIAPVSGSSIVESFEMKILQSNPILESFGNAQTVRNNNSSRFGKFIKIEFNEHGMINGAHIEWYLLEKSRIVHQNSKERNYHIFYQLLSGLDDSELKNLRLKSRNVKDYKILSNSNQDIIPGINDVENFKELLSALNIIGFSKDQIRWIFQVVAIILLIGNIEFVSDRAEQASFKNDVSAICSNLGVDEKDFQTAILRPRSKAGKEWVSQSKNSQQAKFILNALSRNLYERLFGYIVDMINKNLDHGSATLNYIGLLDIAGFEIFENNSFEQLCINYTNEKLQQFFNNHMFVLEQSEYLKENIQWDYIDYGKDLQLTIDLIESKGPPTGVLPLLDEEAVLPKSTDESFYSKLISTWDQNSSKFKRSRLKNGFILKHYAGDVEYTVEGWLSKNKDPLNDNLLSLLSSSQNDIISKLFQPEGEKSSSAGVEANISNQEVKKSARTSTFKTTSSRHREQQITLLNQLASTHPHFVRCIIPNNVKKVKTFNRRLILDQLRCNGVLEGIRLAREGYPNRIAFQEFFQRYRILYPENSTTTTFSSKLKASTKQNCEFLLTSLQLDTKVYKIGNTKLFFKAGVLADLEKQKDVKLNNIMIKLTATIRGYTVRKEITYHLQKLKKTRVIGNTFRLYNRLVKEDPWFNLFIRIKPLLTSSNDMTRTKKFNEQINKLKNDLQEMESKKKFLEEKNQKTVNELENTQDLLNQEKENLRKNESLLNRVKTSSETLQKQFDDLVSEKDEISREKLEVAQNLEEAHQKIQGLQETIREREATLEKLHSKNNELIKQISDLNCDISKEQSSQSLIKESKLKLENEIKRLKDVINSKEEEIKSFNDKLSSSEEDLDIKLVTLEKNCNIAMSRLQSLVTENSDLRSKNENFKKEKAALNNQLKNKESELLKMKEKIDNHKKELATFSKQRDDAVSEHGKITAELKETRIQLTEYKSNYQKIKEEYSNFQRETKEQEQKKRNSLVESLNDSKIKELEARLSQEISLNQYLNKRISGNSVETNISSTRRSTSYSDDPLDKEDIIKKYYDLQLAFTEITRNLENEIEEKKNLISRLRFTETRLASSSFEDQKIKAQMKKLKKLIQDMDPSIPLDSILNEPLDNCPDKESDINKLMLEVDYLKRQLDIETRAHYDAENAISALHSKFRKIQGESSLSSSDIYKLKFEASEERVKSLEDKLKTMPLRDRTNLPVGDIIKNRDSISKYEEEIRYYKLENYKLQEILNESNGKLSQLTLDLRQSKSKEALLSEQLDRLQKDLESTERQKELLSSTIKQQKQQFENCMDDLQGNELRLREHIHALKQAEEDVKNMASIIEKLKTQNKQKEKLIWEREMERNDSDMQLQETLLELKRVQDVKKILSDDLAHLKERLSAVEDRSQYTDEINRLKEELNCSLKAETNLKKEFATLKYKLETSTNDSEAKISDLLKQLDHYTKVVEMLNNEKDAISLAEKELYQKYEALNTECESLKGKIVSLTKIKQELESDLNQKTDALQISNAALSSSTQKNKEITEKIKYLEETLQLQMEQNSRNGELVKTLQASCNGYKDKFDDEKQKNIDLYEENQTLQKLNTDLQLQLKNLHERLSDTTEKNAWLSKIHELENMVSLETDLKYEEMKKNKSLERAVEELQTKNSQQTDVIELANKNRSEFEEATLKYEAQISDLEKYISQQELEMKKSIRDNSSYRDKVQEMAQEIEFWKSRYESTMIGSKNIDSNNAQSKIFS
UniProt P33332: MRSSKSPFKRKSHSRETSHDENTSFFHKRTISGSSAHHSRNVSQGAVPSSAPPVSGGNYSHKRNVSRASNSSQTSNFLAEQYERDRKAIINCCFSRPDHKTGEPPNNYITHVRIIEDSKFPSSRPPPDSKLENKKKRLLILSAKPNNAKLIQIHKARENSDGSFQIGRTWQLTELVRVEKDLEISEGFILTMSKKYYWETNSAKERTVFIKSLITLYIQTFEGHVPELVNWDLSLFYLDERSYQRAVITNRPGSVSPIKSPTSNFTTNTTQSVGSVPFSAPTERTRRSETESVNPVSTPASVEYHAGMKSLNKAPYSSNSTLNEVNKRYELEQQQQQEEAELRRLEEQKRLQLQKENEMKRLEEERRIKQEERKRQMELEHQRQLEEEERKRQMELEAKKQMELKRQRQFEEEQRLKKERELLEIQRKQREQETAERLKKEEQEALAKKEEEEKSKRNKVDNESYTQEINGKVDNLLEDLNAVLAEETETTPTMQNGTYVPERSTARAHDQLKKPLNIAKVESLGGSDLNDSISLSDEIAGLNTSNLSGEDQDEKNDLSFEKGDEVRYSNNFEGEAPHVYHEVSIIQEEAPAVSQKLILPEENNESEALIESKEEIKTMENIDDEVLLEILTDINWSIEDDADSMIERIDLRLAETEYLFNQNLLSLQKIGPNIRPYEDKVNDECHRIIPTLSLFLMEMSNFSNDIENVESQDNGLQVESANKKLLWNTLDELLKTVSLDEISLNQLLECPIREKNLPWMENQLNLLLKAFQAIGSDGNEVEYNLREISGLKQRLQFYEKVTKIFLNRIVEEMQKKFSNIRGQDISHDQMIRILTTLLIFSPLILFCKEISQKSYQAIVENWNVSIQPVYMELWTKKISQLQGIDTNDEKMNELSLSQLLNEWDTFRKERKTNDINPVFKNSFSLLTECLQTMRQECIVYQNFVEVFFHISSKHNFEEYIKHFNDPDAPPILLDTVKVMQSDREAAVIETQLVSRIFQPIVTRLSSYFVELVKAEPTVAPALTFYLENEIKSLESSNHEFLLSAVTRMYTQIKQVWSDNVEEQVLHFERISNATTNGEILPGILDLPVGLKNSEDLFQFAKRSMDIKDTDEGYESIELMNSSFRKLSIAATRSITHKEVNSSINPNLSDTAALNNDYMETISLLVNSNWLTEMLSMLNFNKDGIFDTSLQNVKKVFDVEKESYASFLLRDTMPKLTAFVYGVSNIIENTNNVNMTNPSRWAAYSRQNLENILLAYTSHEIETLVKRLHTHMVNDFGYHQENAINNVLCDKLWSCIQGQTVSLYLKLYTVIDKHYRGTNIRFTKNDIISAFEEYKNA
UniProt P35169: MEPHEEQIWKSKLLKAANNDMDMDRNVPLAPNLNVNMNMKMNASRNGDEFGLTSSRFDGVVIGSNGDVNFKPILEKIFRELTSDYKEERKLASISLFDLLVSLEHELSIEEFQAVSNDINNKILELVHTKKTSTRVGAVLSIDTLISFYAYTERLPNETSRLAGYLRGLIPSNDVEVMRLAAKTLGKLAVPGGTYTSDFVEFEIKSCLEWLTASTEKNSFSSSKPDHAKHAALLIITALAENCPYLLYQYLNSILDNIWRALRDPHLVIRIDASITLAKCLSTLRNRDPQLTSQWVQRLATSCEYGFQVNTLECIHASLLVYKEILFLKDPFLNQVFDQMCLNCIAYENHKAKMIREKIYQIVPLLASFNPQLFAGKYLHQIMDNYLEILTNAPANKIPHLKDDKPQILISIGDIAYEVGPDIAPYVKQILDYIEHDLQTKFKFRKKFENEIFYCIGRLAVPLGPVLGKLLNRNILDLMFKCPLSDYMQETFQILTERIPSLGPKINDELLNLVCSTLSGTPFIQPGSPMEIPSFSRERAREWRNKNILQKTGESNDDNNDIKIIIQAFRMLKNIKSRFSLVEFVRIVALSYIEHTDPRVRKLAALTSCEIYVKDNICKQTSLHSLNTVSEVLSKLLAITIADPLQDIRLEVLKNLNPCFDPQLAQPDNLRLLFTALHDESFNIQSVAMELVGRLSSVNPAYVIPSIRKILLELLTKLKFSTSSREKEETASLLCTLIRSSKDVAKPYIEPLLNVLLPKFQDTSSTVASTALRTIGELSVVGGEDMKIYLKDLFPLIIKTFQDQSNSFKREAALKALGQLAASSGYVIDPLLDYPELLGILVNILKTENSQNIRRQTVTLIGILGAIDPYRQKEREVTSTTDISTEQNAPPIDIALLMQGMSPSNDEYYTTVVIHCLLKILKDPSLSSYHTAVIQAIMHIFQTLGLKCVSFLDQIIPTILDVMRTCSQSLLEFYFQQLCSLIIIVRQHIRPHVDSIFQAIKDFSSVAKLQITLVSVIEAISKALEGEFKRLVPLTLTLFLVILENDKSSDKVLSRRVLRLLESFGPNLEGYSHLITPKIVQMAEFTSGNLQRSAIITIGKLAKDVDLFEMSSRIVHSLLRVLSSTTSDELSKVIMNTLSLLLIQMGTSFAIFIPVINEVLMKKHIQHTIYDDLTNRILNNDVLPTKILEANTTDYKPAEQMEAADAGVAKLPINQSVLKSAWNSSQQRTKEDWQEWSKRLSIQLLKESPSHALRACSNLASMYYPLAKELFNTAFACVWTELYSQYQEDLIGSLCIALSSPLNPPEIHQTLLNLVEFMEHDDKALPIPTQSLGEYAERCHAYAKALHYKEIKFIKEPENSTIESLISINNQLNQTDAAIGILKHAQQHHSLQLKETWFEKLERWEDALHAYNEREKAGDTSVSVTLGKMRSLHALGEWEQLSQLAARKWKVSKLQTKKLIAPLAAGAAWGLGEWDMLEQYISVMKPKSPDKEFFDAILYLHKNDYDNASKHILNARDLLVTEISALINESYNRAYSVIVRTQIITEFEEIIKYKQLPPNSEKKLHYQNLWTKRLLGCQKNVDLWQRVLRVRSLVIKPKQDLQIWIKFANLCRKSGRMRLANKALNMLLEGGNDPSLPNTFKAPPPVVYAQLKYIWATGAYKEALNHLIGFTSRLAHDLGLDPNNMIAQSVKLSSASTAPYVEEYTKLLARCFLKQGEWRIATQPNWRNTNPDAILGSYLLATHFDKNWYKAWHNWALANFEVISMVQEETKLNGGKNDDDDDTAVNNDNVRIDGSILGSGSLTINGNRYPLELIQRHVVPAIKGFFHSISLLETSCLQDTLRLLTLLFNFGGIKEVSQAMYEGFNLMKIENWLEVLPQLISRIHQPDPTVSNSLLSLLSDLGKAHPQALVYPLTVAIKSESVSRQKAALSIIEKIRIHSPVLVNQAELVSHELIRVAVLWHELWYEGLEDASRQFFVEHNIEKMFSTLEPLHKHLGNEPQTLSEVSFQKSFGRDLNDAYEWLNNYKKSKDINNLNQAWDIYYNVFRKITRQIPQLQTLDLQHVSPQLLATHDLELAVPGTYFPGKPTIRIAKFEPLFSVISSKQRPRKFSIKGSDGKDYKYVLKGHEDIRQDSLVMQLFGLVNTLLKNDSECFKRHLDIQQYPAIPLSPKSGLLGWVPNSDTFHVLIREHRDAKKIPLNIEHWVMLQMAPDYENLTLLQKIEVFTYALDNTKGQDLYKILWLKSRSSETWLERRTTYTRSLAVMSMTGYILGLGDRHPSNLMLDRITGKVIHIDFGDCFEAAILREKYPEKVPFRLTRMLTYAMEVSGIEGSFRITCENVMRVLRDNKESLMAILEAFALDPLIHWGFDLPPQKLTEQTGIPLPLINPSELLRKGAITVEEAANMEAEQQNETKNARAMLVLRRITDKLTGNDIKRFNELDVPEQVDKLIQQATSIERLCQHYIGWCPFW

B1: Fir1 (protein, UniProt P40020 1-876)
chain: MSLPVTPVKSKVCSTLSIQHEMDHDQCRDVLCPRENLLAINRTNNIESVAIPRQRSSKNKKPHEHTQSQVRFSIPDPNEISQDSPLKIVFPKSGNETERRMSTSSLLMNSHGHLVDMHSKILVDVPKEVWKFHHNRRKKCESRHRKTRSDVRSNTSSSGKEPNHSRSKSLQSIIVDTMNTYRATEVETSINENTSNISQVSPLNLSFDRPPPLTPEKNLYLTPESPLNRYHLPVPLEISLPPYLSPQNKDKKRSSLVYDGDGYSQFQEGNTSSSTESSLEQPSSSYSDEDDSIPYAHHDVSFELNNADADKLLGIDENANVNLKIQRRNLKNPQHIKSKTDRECEEKNTEKNVSLKILSTPNKLIDIPDLEHMKSPPSTGLNGTLKFFQQFEPSEEPTSPTRQVNPESLDKLDMSFKFPSSTTNNNVDKVHENRNSGDTNNEDFLKVDTSPVNQSFESRRQMLIDLQKSPTNNNPRIHKHRRSRSVHNIDDISLNFEATSTPPAPTSAPSIPVEHSNPCTSIEIPKRSPLRFTSSPKTSDIPPEAQSPKNGSFLQEISVPSIQIIPDESISHTREPSPSLIECPEDENEAFSTEVADHSIAIISETKSVPSIEPFKPLSSFNSFGQEIQNKEPTPLNQTPTDLIGKQRNCVNPHSIPFSVLSSNSQSSQSGSSKSSYNSEFSSNTAITDTTSQPSVTINRSTLEHNFIEEKRSIKNLGHGPPSQKNNYSFPRNKNTPSNRHDLDFNTIYEKRDGKMVEVILLDEDEDVGLKNNDISRTRVCHAQKAKNEQQKKRLSHCNEILGMCDKTADDAKRIIYQLVNEKHKFSEKGQQTKPKKSRVLPPLPFPLYDEKGNSLIPNKYQSSIHNDIPSHRKLK
B2: Ace2 (protein, UniProt P21192 1-770)
chain: MDNVVDPWYINPSGFAKDTQDEEYVQHHDNVNPTIPPPDNYILNNENDDGLDNLLGMDYYNIDDLLTQELRDLDIPLVPSPKTGDGSSDKKNIDRTWNLGDENNKVSHYSKKSMSSHKRGLSGTAIFGFLGHNKTLSISSLQQSILNMSKDPQPMELINELGNHNTVKNNNDDFDHIRENDGENSYLSQVLLKQQEELRIALEKQKEVNEKLEKQLRDNQIQQEKLRKVLEEQEEVAQKLVSGATNSNSKPGSPVILKTPAMQNGRMKDNAIIVTTNSANGGYQFPPPTLISPRMSNTSINGSPSRKYHRQRYPNKSPESNGLNLFSSNSGYLRDSELLSFSPQNYNLNLDGLTYNDHNNTSDKNNNDKKNSTGDNIFRLFEKTSPGGLSISPRINGNSLRSPFLVGTDKSRDDRYAAGTFTPRTQLSPIHKKRESVVSTVSTISQLQDDTEPIHMRNTQNPTLRNANALASSSVLPPIPGSSNNTPIKNSLPQKHVFQHTPVKAPPKNGSNLAPLLNAPDLTDHQLEIKTPIRNNSHCEVESYPQVPPVTHDIHKSPTLHSTSPLPDEIIPRTTPMKITKKPTTLPPGTIDQYVKELPDKLFECLYPNCNKVFKRRYNIRSHIQTHLQDRPYSCDFPGCTKAFVRNHDLIRHKISHNAKKYICPCGKRFNREDALMVHRSRMICTGGKKLEHSINKKLTSPKKSLLDSPHDTSPVKETIARDKDGSVLMKMEEQLRDDMRKHGLLDPPPSTAAHEQNSNRTLSNETDAL

The molecules below were run against Cbk1-GFP (S. cerevisiae) (UniProt P53894) (assay: affinity purification with mass spectrometry; Cbk1-GFP immunoprecipitated on GFP-Trap Magnetic beads from extracts of cdc15-2 (with or without rapamycin) and TOR1-1 cdc15-2 (with rapamycin) cells arrested in late anaphase at 37 °C; three biological replicates against untagged control cells; spectral counts, SAINT).

**Q.** How did the binding turn out when Tao3 (from UniProt P40468 1-2376) was run?
**A.** binds

**Q.** How did the binding turn out when Kog1 (from UniProt P38873 1-1557) was run?
**A.** binds

**Q.** Which binding does the source give for Myo1 (from UniProt P08964 1-1928) here?
**A.** binds

**Q.** How did the binding turn out when Sec3 (from UniProt P33332 1-1336) was run?
**A.** binds

**Q.** With “Tor1 (from UniProt P35169 1-2470) (enzyme)” as the molecule, how does the binding read?
**A.** binds

Biological target: Cbk1-GFP (S. cerevisiae) (UniProt P53894)
Assay: as above
Remark: another data set of the same source

**Q.** For B1, which binding is on record?
**A.** binds

**Q.** For B2, which binding is on record?
**A.** binds
